From PubChem BioAssay AID540276 (National Center for Advancing Translational Sciences (NCATS), 2011)
Where “and” joins values, the source holds several entries; their conditions need not be identical. Equal entries are not always repeated. In all, about 300,000 compounds went through this assay and about 5,400 (1.8%) were called active. The shares of active, inactive and inconclusive entries below differ from those in the screen. Calls follow the shape of the full dose curve; tested in HEK293 cells. Potencies beside an inconclusive call are fits to weak or partial responses and may not hold up.

assay: qHTS for inhibitors of binding or entry into cells for Marburg Virus; conditions: Marburg virus pseudotyped entry inhibition, cell reporter; activity change, negative = inhibition: at 37.8 µM (top of the series) unless noted
% is scaled to controls: 0 for no effect and ±100 for the full control effect; potency is read from the fitted curve at half-maximal effect.

| Structure (SMILES) | Potency | activity change, negative = inhibition |
| --- | --- | --- |
| CN(CC(=O)O)c1ccc(S(=O)(=O)N2CCOCC2)cc1[N+](=O)[O-] | inconclusive: 1.26 µM [activator, partial curve, poor fit] |  |
| CC(=O)c1cccc(NC(=O)c2cc3nc(C)cc(C)n3n2)c1 | inconclusive: 3.98 µM [activator, partial curve, poor fit] |  |
| c1csc(C2Nc3ccccc3-c3nc4ccccc4n32)c1 (stereo not given) | inconclusive: 35.5 µM [inhibitor, single point] |  |
| CC1(C)CC(=O)c2c(oc3ccc(NS(=O)(=O)c4cccc5cccnc45)cc23)C1 | inconclusive: 22.4 µM [inhibitor, single point] |  |
| Cc1ccc(O)c(CN(C)Cc2cc(C)ccc2O)c1 | inconclusive: 6.31 µM [activator, single point] |  |
| Cc1csc(Cn2c(CN(C)C)nc3ccccc3c2=O)n1 |  | inactive: 7.73% |
| CCNC(=O)CC1C(=O)N(c2ccc(F)cc2)C(=S)N1CCc1ccncc1 (stereo not given) | inconclusive: 12.6 µM [inhibitor, partial curve, poor fit] |  |
| Clc1cccc(CSc2ncnc3c2ncn3C2CCCCO2)c1 (stereo not given) | inconclusive: 25.1 µM [inhibitor, single point] |  |
| CCSc1nnc(NC(=O)CSc2nncc(=O)n2N)s1 |  | inactive: -11.8% [at 46.1 µM] |
| Cn1c(=O)cc(SCC(=O)NCCc2ccc(Cl)cc2)c2cc(Cl)ccc21 | inconclusive: 5.62 µM [activator, single point] |  |
| CC(=O)c1cccc(NC(=O)C2=CC(c3cccs3)=NS(=O)(=O)N2C)c1 |  | inactive: -21.7% [at 46.1 µM] |
| O=C(c1ccccc1Br)N(Cc1ccccc1)c1ccccc1 | inconclusive: 35.5 µM [inhibitor, single point] |  |
| CCc1ccc2oc(C(=O)N(Cc3cccc(Cl)c3)Cc3ccco3)c(C)c2c1 |  | inactive: 4.08% [at 46.1 µM] |
| O=C(Nc1ccc(Cl)cc1)O/N=C(\c1ccccc1)c1ccccn1 |  | inactive: 10.2% |
| CCOC(=O)C1CCN(C2=C(NS(=O)(=O)c3ccc(Cl)cc3)C(=O)c3ccccc3C2=O)CC1 | inconclusive: 12.6 µM [inhibitor, partial curve, poor fit] |  |
| COc1ccc(Br)c(C(=O)Nc2ccc(F)cc2)c1 | inconclusive: 35.5 µM [inhibitor, single point] |  |
| CC1(C)CN(c2ccc(F)cc2)C1=O | inconclusive: 0.562 µM [activator, full curve, poor fit] |  |
| Cc1cc(/C=N/NC(N)=S)c(C)n1-c1cccc(Cl)c1 | inconclusive: 5.62 µM [inhibitor, partial curve] |  |

| Structure (SMILES) | Potency | activity change, negative = inhibition |
| --- | --- | --- |
| COc1cc(Br)cc(C=Nc2cccc(C(F)(F)F)c2)c1O | inconclusive: 1.26 µM [inhibitor, single point] |  |
| COc1ccc(CCC(=O)NCCCNC(=O)CCc2ccc(OC)cc2)cc1 | inconclusive: 31.6 µM [activator, single point] |  |
| Cc1ccc(C(=O)N/C(=C/c2ccc(-c3ccc(Br)cc3)o2)C(=O)NC2CCS(=O)(=O)C2)cc1 (stereo not given) |  | inactive: 2.73% |
| Nc1nc(O)c(Sc2ccccc2[N+](=O)[O-])c(=O)[nH]1 |  | inactive: 5.85% [at 46.1 µM] |
| COc1cccc(-c2nc(S(=O)(=O)c3ccc(C)cc3)c(NCc3ccccc3)o2)c1 | inconclusive: 20 µM [inhibitor, partial curve, poor fit] |  |
| O=C(COc1ccccc1)NCC(=O)N/N=C/c1cc(Br)ccc1OCc1ccccc1 | active: 8.91 µM |  |
| Cc1ccc(-n2nc(-c3cccs3)cc2C(=O)NCC2CCCO2)c(C)c1 (stereo not given) | inconclusive: 11.2 µM [inhibitor, partial curve, poor fit] |  |
| O=C(NCc1ccc(F)cc1)C(c1cccnc1)N(C(=O)c1csnn1)c1ccccc1 (stereo not given) |  | inactive: 7.25% [at 46.1 µM] |
| O=C(c1cccc(F)c1)N1CCN(C(=O)c2nn3cccnc3c2Cl)CC1 | inconclusive: 1.41 µM [activator, partial curve] |  |
| CCOc1ccccc1C1C(C(=O)OC)=C(N)OC2=C1C(=O)CCC2 (stereo not given) | inconclusive: 29.1 µM [activator, single point] |  |
| CCCCCC(=O)NC(=S)NC1C2CC3CC(C2)CC1C3 (stereo not given) | inconclusive: 35.5 µM [inhibitor, single point] |  |
| O=C(OCC(=O)N1CCCC1)c1ccc(NS(=O)(=O)c2cccs2)cc1O |  | inactive: 13.1% [at 46.1 µM] |
| CN(C)CCn1nnc2c(=O)oc3ccccc3c21 |  | inactive: 5.52% [at 46.1 µM] |
| Cc1cnc(C(=O)Nc2ccc(N3CCN(C(=O)OC(C)(C)C)CC3)cc2)cn1 | inconclusive: 2.51 µM [inhibitor, full curve] |  |
| C=CCN(C(=O)c1ccccc1)c1ccc(OC)cc1 | inconclusive: 25.1 µM [inhibitor, single point] |  |
| COc1ccc(NC(=O)CC2C(=O)N(Cc3cccs3)C(=S)N2C(C)C)cc1 (stereo not given) | inconclusive: 35.5 µM [inhibitor, single point] |  |
| Cc1ccc2[nH]c(=O)c(CN(CCCN3CCOCC3)Cc3nnnn3C3CCCC3)cc2c1 | inactive and inconclusive: 20.6 µM [inhibitor, single point] |  |

No new results follow: an excerpt of the list.

| Structure (SMILES) | Potency | activity change, negative = inhibition |
| --- | --- | --- |
| CCCCCC(=O)NC(=S)NC1C2CC3CC(C2)CC1C3 (stereo not given) | inconclusive: 35.5 µM [inhibitor, single point] |  |
| O=C(OCC(=O)N1CCCC1)c1ccc(NS(=O)(=O)c2cccs2)cc1O |  | inactive: 13.1% [at 46.1 µM] |
